According to PubChem BioAssay AID493014 (National Center for Advancing Translational Sciences (NCATS), 2011):
The list shows a part of the results. Further columns of the screen follow, without active or inactive calls. The list favours compounds with an active or inconclusive main result. The note in brackets gives the kind of curve behind each potency; many fits are weak.

Experiment: qHTS Assay to Find Inhibitors of Chronic Active B-Cell Receptor Signaling
Settings: ABC-DLBCL IkBa-CBG/CBR reporter, luminescence ratio (green luciferase fused to IkBa over red control in TMD8 lymphoma cells), 4 h
Summary of the method: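 TMD8 human ABC-DLBCL cells with doxycycline-inducible IκBα–green luciferase fusion and unfused red luciferase, in 0.5% FBS medium; compounds up to 46 uM, 4 h at 37C. Green/red luminescence ratio, filter-overlap corrected, fitted to concentration-response curves.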

[1] = measured here: IkBa-CBG green luminescence
[2] = measured here: CBR red luminescence, cell number

Compound | AC50 [1] | AC50 [2]
COc1cccc(/C=N/NC(=O)c2[nH]nc3c2CCc2ccccc2-3)c1 | 20 µM [falling, single point] | 
CCN1CCN(C(=O)c2ccc(-c3nc4ccccc4s3)s2)CC1 |  | 3.55 µM [rising, single point]
Cc1cc(C(=O)CN2C(=O)C(=O)N(C3CCCC3)C2=O)c(C)n1-c1ccc(F)cc1 |  | 35.5 µM [falling, single point]
N/C(=N\OC(=O)c1ccc(Br)cc1)c1ccccc1 |  | 35.5 µM [falling, single point]
CCN(CC(=O)Nc1ccc2c(c1)OC(F)(F)O2)Cc1nc2ccccc2c(=O)[nH]1 |  | 0.92 µM [falling, full curve, poor fit]
CC(/C=C/c1ccccc1)=N\NC(=O)CNC(=O)c1ccccc1Cl |  | 29.1 µM [rising, single point]
COC(=O)c1sc(NC(=O)CSc2nnnn2-c2ccc(C)cc2C)nc1C |  | 5.62 µM [falling, full curve, poor fit]
CCCSC1=C(C#N)C(c2cc(OC)ccc2OC)CC(=O)N1 (stereo unspecified) |  | 0.731 µM [rising, full curve, poor fit]
COc1cccc(-c2ccc(NC(=O)C3CCCN(CCCn4nc(C)cc4C)C3)cc2)c1 (stereo unspecified) |  | 10 µM [falling, partial curve, poor fit]
COc1cccc(OCCN2CCN(c3ncnc4c3cnn4-c3ccccc3)CC2)c1 |  | 6.31 µM [falling, single point]
Cc1cccc2cc(CN(CC(C)C)S(=O)(=O)c3ccccc3)c(=O)[nH]c12 |  | 0.282 µM [falling, full curve]
O=S(=O)(N/N=C1\CC(c2ccccc2)Oc2ccccc21)c1ccccc1 (stereo unspecified) |  | 35.5 µM [falling, single point]
COC(=O)[C@@H]1CC[C@H](C)[C@@H](c2ccc(C)cc2)N1C(=O)c1ccc(/C=N/OC[C@@H](O)COCc2ccco2)cc1 | 29.1 µM [rising, single point] | 11.6 µM [falling, single point]
CCOC(=O)c1sc(NC(=O)c2ccc3ncsc3c2)nc1C |  | 0.146 µM [falling, full curve]
O=C(c1ccc(Oc2ccccc2)cc1)c1nc2c(n1O)CCCC2 |  | 9.2 µM [falling, partial curve, poor fit]
COc1ccc(C(CNC(=O)c2ccccc2C)N2CCCC2)cc1 (stereo unspecified) |  | 0.651 µM [falling, full curve, poor fit]
COc1ccc(C(=O)OCC(=O)NCC2CCCO2)cc1[N+](=O)[O-] (stereo unspecified) |  | 10 µM [rising, partial curve]
COc1cc(/C=C/C(=O)N[C@@H](Cc2c[nH]c3ccccc23)C(=O)O)ccc1O |  | 0.447 µM [rising, full curve, poor fit]
CCn1c(CSc2nc(C)cc(C)n2)nnc1SCC(=O)Nc1ccccc1 |  | 1.46 µM [rising, full curve, poor fit]

Compound | AC50 [1] | AC50 [2]
COc1ccc(C2c3[nH]c4ccccc4c3CCN2C(=O)c2cc3ncccn3n2)c(F)c1 (stereo unspecified) |  | 25.1 µM [falling, single point]
COc1ccc(NC(=O)c2ccc3[nH]c(C)c(C)c3c2)cc1 |  | 7.94 µM [falling, partial curve, poor fit]
O=C(O)c1ccccc1SC1CC(=O)N(c2ccccc2)C1=O (stereo unspecified) |  | 5.17 µM [falling, partial curve]
O=C(Nc1ccccc1C(=O)O)c1ccc(Br)o1 |  | 1.58 µM [falling, full curve]
CC1(C)CC[C@]2(C(=O)O)[C@H](O)C[C@]3(C)C(=CCC4[C@@]5(C)C[C@H](O)[C@H](O)[C@@](C)(CO)C5CC[C@]43C)[C@@H]2C1 (stereo partly specified) | 3.66 µM [rising, partial curve, poor fit] | 3.66 µM [falling, partial curve]
CCOC(=O)c1c(NC(=O)Cn2cnc([N+](=O)[O-])n2)sc2c1CCCC2 |  | 4.61 µM [falling, partial curve, poor fit]
COc1ccc(C(=O)NCCC2=CCCCC2)cc1 |  | 29.1 µM [falling, single point]
CCN(CCCNC(=O)CNC(=O)Cn1cnc2ccccc2c1=O)c1cccc(C)c1 |  | 9.2 µM [rising, partial curve, poor fit]
CC(C)C(=O)Nc1cccc(-c2csc(-c3ccccc3)n2)c1 |  | 16.4 µM [falling, partial curve]
CC(C)CSC1=NSC2=NC(=O)/C(=C\c3cccs3)C(=N)N12 |  | 4.61 µM [rising, single point]
Nc1nc(SCC(=O)Nc2c(Br)cc([N+](=O)[O-])cc2Br)n[nH]1 |  | 13 µM [rising, partial curve, poor fit]
CN(CC(=O)Nc1ccc(F)c(F)c1F)C(=O)c1ccc(-n2cncn2)cc1 |  | 3.66 µM [falling, partial curve, poor fit]
Cc1ccc(S(=O)(=O)/C(=C/Cl)NC(=O)c2ccccc2)cc1 | 5.17 µM [rising, partial curve] | 5.17 µM [falling, partial curve, poor fit]
O=c1c2ccccc2nc(SCc2nc3ccccc3s2)n1CCCO |  | 0.291 µM [rising, full curve]
NS(=O)(=O)c1ccc(-c2ccc(/C=C3\SC(=O)NC3=O)o2)cc1 |  | 35.5 µM [falling, single point]
C/C(CC(=O)Nc1ccc(Cl)cc1C(F)(F)F)=N\NC(N)=S | 35.5 µM [falling, single point] | 
O=C(/C=C\c1ccc2c(c1)OCO2)NC1(C(=O)Nc2ccc3c(c2)OCCO3)CCCCC1 |  | 29.1 µM [falling, single point]
CC(=O)NC1=C(N(C)C2CCS(=O)(=O)C2)C(=O)c2ccccc2C1=O (stereo unspecified) |  | 7.31 µM [falling, partial curve]
O=C(Nc1nccs1)c1ccc(F)c(S(=O)(=O)N2CCOCC2)c1 |  | 22.4 µM [falling, partial curve, poor fit]

Part of the list above in order of heavy-atom count, largest number first.
Compound | AC50 [1] | AC50 [2]
COC(=O)[C@@H]1CC[C@H](C)[C@@H](c2ccc(C)cc2)N1C(=O)c1ccc(/C=N/OC[C@@H](O)COCc2ccco2)cc1 | 29.1 µM [rising, single point] | 11.6 µM [falling, single point]
CC1(C)CC[C@]2(C(=O)O)[C@H](O)C[C@]3(C)C(=CCC4[C@@]5(C)C[C@H](O)[C@H](O)[C@@](C)(CO)C5CC[C@]43C)[C@@H]2C1 (stereo partly specified) | 3.66 µM [rising, partial curve, poor fit] | 3.66 µM [falling, partial curve]
O=C(Nc1nccs1)c1ccc(F)c(S(=O)(=O)N2CCOCC2)c1 |  | 22.4 µM [falling, partial curve, poor fit]
